Measurements as given in patent publication US5202310A, “Cyclosporine metabolites” (priority 1990, dated 1993).

Tested on: monoclonal antibody which had no specificity towards amino acid residue 6 and weakly recognized amino acid residue 1 of CsA
Test: RIA recognition by nonspecific monoclonal antibody
Type: binding
Settings: RIA of gradient HPLC fractions of bile

SMILES | Recognition by nonspecific monoclonal antibody | Recognition by nonspecific monoclonal antibody (listed as CM-H)
C/C=C/C[C@@H](C)[C@@H](O)[C@H]1C(=O)N[C@@H](CC)C(=O)N(C)CC(=O)N(C)[C@@H](CC(C)C)C(=O)N[C@@H](C(C)C)C(=O)N(C)[C@@H](CC(C)C)C(=O)N[C@@H](C)C(=O)N[C@H](C)C(=O)N(C)[C@@H](CC(C)(C)O)C(=O)N[C@@H](CC(C)C)C(=O)N(C)[C@@H](C(C)C)C(=O)N1C [CM Peak H] | not detected | unreactive
CC[C@@H]1NC(=O)[C@H]([C@H](O)[C@H](C)C/C=C/CO)N(C)C(=O)[C@H](C(C)C)N(C)C(=O)[C@H](CC(C)C)N(C)C(=O)[C@H](CC(C)(C)O)N(C)C(=O)[C@@H](C)NC(=O)[C@H](C)NC(=O)[C@H](CC(C)C)N(C)C(=O)[C@H](C(C)C)NC(=O)[C@H](CC(C)C)N(C)C(=O)CN(C)C1=O [OL-8, 1,9 dihydroxy cyclosporine A] | very clearly recognized | 
CC[C@@H]1NC(=O)[C@H]([C@H](O)[C@H](C)C/C=C/CO)N(C)C(=O)[C@H](C(C)C)N(C)C(=O)[C@H](CC(C)C)N(C)C(=O)[C@H](CC(C)C)N(C)C(=O)[C@@H](C)NC(=O)[C@H](C)NC(=O)[C@H](CC(C)C)N(C)C(=O)[C@H](C(C)C)NC(=O)[C@H](CC(C)C)N(C)C(=O)CN(C)C1=O [OL-17, 1-hydroxy cyclosporine A] | very clearly recognized | 
C/C=C/C[C@@H](C)[C@@H](O)[C@H]1C(=O)N[C@@H](CC)C(=O)N(C)CC(=O)N(C)[C@@H](CC(C)C)C(=O)N[C@@H](C(C)C)C(=O)N(C)[C@@H](CC(C)C)C(=O)N[C@@H](C)C(=O)N[C@H](C)C(=O)N(C)[C@@H](CC(C)(C)O)C(=O)N(C)[C@@H](CC(C)C)C(=O)N(C)[C@@H](C(C)C)C(=O)N1C [OL-1, 9-hydroxy cyclosporine A] | very clearly recognized | 
